Experimental data as given in PMC6679371, “Synthesis and Evaluation of Novel Pyrazole Ethandiamide Compounds as Inhibitors of Human THP-1 Monocytic Cell Neurotoxicity” (Cells, 2019).
Entries after “also recorded” stand apart in the source; their conditions may differ.

Assay: Compatibility control: compounds mixed with MTT solution in the absence of cells
Conditions: 1–100 µM, absorbance at 570 nm, no cells
Procedure: The new pyrazole derivatives 2a–f and 3 were tested in vitro to determine their cytotoxicity as well as their anti-neurotoxic and neuroprotective properties. […] The compatibility of compounds 2 and 3 with the assay used in this study was investigated first. Thus, controls were performed with all compounds and the MTT reagent used in the cell viability assay; the absorbance at 570 nm was measured after mixing the compounds with the MTT solution in the absence of cells.

In the case of `N#Cc1cnn(-c2ccccc2)c1NC(=O)C(=O)Nc1ccc(O)cc1` [2f], the “reaction with / interference with the MTT reagent” value is reported as “found to react with the MTT reagent; also recorded: interfered with the MTT assay”.
